Reference: article PMC8810793
Results are given in words; binding and its absence hold for the method and conditions named. In cells and extracts the contact can be indirect. Some entries that bind do so weakly or less than the wild type.

The chains behind the UniProt entries cited, without tags or fusion partners.
UniProt Q8IWZ3: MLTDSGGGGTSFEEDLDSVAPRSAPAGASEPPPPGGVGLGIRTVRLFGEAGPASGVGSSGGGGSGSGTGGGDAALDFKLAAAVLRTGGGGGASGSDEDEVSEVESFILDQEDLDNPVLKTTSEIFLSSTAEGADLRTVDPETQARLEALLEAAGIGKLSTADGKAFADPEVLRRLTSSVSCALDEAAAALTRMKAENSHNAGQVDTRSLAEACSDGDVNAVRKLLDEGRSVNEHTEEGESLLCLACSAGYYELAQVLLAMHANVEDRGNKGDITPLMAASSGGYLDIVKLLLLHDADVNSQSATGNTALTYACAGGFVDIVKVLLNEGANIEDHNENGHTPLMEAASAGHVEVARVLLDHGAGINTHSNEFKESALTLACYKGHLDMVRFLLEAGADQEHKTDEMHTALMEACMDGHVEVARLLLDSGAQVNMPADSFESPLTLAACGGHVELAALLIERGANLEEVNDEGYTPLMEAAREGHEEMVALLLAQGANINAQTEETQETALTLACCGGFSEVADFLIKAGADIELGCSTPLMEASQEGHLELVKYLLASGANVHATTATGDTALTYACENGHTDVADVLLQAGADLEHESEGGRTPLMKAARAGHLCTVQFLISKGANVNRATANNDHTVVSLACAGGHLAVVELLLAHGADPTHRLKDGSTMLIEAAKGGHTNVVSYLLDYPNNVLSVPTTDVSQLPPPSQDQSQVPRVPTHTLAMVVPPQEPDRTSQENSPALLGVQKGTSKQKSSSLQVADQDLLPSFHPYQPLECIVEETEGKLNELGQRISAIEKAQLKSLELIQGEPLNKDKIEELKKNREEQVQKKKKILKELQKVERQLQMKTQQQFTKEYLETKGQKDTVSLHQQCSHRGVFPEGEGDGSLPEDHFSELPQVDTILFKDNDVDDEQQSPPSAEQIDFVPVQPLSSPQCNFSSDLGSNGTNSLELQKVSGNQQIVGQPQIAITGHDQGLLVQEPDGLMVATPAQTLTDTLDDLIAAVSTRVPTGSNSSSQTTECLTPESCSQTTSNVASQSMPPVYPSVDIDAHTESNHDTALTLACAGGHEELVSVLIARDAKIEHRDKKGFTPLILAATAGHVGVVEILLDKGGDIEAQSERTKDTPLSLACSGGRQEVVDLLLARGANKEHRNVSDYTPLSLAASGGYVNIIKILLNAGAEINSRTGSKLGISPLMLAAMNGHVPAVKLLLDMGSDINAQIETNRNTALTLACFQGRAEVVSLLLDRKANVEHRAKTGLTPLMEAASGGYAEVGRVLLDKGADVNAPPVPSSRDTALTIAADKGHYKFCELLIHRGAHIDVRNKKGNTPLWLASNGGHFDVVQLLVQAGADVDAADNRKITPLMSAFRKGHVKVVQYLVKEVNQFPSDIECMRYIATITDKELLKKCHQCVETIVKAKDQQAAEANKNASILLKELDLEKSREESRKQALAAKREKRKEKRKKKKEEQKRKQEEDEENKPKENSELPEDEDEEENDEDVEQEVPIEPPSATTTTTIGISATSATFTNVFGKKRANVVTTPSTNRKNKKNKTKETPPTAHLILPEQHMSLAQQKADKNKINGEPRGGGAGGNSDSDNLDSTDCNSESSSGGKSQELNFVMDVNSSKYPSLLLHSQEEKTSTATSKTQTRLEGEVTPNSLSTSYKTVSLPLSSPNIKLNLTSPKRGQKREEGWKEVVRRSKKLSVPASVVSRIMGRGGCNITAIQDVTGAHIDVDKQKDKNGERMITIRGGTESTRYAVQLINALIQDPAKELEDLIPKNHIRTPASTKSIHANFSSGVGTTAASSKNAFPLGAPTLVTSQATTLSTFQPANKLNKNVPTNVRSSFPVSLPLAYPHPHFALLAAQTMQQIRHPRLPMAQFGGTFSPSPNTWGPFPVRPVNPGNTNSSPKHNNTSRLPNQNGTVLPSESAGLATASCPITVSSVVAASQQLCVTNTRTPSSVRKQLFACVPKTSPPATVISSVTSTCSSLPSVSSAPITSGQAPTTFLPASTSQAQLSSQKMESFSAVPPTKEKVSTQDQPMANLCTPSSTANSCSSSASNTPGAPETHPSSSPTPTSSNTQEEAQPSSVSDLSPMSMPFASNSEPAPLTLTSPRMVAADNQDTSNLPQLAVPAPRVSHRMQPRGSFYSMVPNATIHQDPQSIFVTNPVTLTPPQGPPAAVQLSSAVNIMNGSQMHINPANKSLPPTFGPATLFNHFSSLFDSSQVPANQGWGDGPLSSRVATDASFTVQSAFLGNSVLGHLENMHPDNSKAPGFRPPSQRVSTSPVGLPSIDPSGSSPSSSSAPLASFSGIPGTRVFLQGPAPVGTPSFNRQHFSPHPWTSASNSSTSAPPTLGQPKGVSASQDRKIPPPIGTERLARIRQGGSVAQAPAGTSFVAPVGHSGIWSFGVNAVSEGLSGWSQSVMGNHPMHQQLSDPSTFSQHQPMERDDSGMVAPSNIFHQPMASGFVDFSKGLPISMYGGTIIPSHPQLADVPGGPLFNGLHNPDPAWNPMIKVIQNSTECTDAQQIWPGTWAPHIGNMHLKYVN
UniProt P46937: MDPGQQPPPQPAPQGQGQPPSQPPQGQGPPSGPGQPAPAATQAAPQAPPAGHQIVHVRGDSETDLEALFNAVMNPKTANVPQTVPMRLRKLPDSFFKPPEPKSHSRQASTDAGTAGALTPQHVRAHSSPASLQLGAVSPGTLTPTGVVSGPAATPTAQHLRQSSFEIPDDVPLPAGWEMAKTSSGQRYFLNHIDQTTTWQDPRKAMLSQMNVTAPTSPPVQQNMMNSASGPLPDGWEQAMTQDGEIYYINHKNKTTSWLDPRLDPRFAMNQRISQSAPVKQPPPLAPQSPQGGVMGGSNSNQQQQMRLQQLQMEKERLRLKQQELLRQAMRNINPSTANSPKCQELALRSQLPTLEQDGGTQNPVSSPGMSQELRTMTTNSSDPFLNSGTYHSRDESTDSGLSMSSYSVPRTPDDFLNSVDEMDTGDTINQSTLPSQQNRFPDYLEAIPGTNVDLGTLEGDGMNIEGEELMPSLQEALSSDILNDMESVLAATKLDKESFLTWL

Target: ankyrin repeat and KH domain containing 1 (ANKHD1) (human (endogenous in HCT116)) (UniProt Q8IWZ3)
Test: co-IP; HCT116 cell lysate in RIPA buffer; antibody overnight at 4 °C, protein A/G agarose beads 3 h at 4 °C, three washes with ice-cold RIPA buffer, Western blot

binding: binds
Substance: Yes-associated protein 1 (YAP1) (from UniProt P46937 1-504)
